No constants are given. Whether binding was seen depends on the method and setting. In cells and extracts the contact can be indirect. These calls come from enrichment with a bait or labelling near it, and not all partners need be listed.
B1: Nup155, endogenous (protein, UniProt F4HXV6 1-1464)
chain: MSQDDEIVMRDVTSAGICIGDRIGREAASQLDLEEALEASRYASHPYSTHPREWPPLIEVGETWELPSVLIERYNTAGGEGTALCGIFPEIRRAWASVDNSLFLWRFDKRDGQCPEYSGEEQAICAVGLAKCRPGVFVEAIQYLLVLATPVELVLVGVCCTEGPDGRDPYAEISVQPLPDYTISSDGVTMTCVTCTNKGRIFMAGRDGHIYELLYTTGSGWNKRCRKVCLTAGVGSMISRWVVPNVFKFGAVDPVVEMVVDNERQILYARTEEMKLQAYVSGPNGEGPLKKVAEERNLLNQKDLSQGNRQSAVAGRSNKPSIVSISPLSMLESKWLHLVAALSDGRRMYLSTSSSGSGSTISFSGFNNHRQTPNCLKVVSTRPSPPLGVGVGLGFGAASVAGRTQNDDLSMKIETAYYSVGTLVLSDSSPPAMSSLLVVSRDSSVHSQAGSSSGPSSRSSRALREVVSSLPIEGRMLFVADVLPSPDTAATIQSLYSELEYCGVEVSGESYEKACGKLWARSDLSTQHILPRRKIVVFTTMGMMELVFNRPVDILRRLLESNSPRSLLEDFFTRFGVGEAAAMCLMLAARIINFEDLISNIVADKAAEAFEDPRIVGMPQFDGSSGLSNTRTATGGFSMGQVVQEAEPIFSGAHEGLCLCTSRLLFPLWELPVMSKKTSSDTMSEDGVVICRLSTSAMHVLESKIRSLEKFLRSRRNQRRGLYGCVAGLGDVTGSILYGTGSELGATERNMVRNLFGAYSNGGESANKRQRLPYSPAELAATEVRAMECIRQLLLRSAEALFLLQLLSQHHVARLVQELDANLKQALVQLTFHQLVCSEEGDQIATRLISAVMEYYTGSDGRGTVDDISPRLREGCPSYFKESDYKFYLAVERLERAALTSDAEEKENVAREAFSFLSKVPGSADLQTVCKRFEDLRFYEAVVCLPLQKAQALDPAGDAFNDQLDASIREHALAQRKQCYEIIANALRSLASPLASPTLDEASRSQYICQIVHLGVQSTDRAFREYLYKAMIELHLENELLEYGGPDLVPFLQNAGSHSESQVGAVSTGSSPLGHSGTQISSDQAKYFDLLAKYYVSKRQHVLAAHVFLRLAERRAISLGDSPTLERRRDDLSQAVLQAKNASNSDGLVGSAQGVSDSGLLDLLEGKLAVLQFQIKIRDKLEAIASNFESSVAMQDSDQNGQVLDGDSSDDTNLANAANEMAMEVSSELKSVTQLYNEYAVPFELWEICLEMLYFANYSGDADSSIIRETWARLIDQALSQGGIREACAVLKRVGSHIYPGDGVVLPLDVLCLHLERAALERSERIENVRDEDIAKALLAACKGAAEPVLNAYDRLLSNAAVVPSPNLRIRLLRSVLVVLREWAMSVLSDRMGSSPTRSSLILGGSFALENKAALNQGARDKIANAANRYMTEVRRLALPPNKTDGVYAGFKELDESLLSPFSF
B2: RAE1, endogenous (protein, UniProt Q38942 1-349)
chain: MATFGAPATANSNPNKSYEVTPSPADSISSLSFSPRADILVATSWDNQVRCWEISRSGASLASAPKASISHDQPVLCSAWKDDGTTVFSGGCDKQAKMWPLLSGGQPVTVAMHEGPIAAMAWIPGMNLLATGSWDKTLKYWDTRQQNPVHTQQLPDKCYTLSVKHPLMVVGTADRNLIVFNLQNPQTEFKRIQSPLKYQTRCVTAFPDQQGFLVGSIEGRVGVHHLDDSQQSKNFTFKCHRDGNDIYSVNSLNFHPVHGTFATAGSDGAFNFWDKDSKQRLKAMSRCNQPIPCSSFNHDGSIYAYAACYDWSKGAENHNPATAKSSIFLHLPQESEVKAKPRVGATGRK
B3: Nup54, endogenous (protein, UniProt Q8GYF7 1-377)
chain: MFGTPSSSPSFGTPSSTPAFGTSSPAFGTPSATPAFGTPSNPSFSSGGFGSSLFSSPFSSQQPQQQQQQQQQQQPSSLFQQQPSSNFGFQSPFNNTAQQQQQTPFPNAQLTTQMAPVAPIPYSLADRDVQAIIEAYKEDPTNPKYAFQHLLFSVTEPQYRVKPAAVSDIMWAEAMSKLEGMDSTERERLWPQLVQGFKDLSQRLKLQDEVLVSDRDRIKTTQSNVKMLQRHLQASTFPSIERLRQKEQSLQRRMLRVMRIIEGLEGKGFRLPLTKGEAELSEKLTAITRQVKGPGAELSRRVQSLQTISRAQANSIAAGSSLYLPGSTKIDEQSLIDMQEVLQQETEAIGRLGNVLKRDMRDMEIMVAEDTEMALDS
B4: Nup96, endogenous (protein, UniProt Q8LLD0 1-1046)
chain: MTSLSIQPFPEISRMARDLDSRKKRRISLDGIAALCEHSKEIIDSLPMLNSPDYFLKPCINELVEREIESPDYCSRVPDFTIGRIGYGYIRFLGNTDVRRLDLDHIVKFHRHEVIVYDDESSKPVVGEGLNKAAEVTLVVNIPDLTWGKQQVNHIAYKLKQSTERQGATFISFDPDNGLWKFFVPHFSRFGLSDDEAEDIAMDDAPGLGDPVGLDGKKVADIDEEDQMETSELELSHSLPAHLGLDPEKMKEMRMLMFPNEDEDESEDFREQTSHLMTSLTKRNVRPSQKIAQRNSHQDPPPVVRKTPLALLEYNPGNDKSSPGSILMVQQNKNLAVRKSKTGGFELDISHVTPLTDNYSRNVVDAALFMGRSFRAGWGPNGVLFHTGKPICSSSSQMVLSSVINKEKIAIDKVVWDRKGKVQKELIDSAFEAPLSLHKELNHVEEEVRFGSFSLKLQNVVTDRVVLSDICRSYIGIIEKQLEVAGLSTSAKLFLMHQVMVWELIKVLFSERQSTERLMYAASDNEEDVMQDVKEDSAKIDTEALPLIRRAEFSCWLQESVSHRVQEDVSDLNGSSYLEHLFFLLTGRELDSAVELAISKGDVRLACLLSQAGGSTVNRNDILQQLHLWRRNGLDFNFIEKERIKLYELLAGNIHDALQDFTIDWKRFLGLLMWHHLPPDSSLPIIFRSYQLLLNQAKAPWPVPIYIDEGPADGFVSDNKHSDILYYLMLLHSKEEEEFGFLQTMFSAFSSTDDPLDYHMIWHHRGILEAVGAFTSDDLHTLDMGFVAQLLSQGLCHWAIYVVLHIPFREDHPYLHVTVIREILFQYCETWSSMESQRQFIKDLGIPSEWMHEALAVYYNYHGDFVKALDQFIECANWQRAHSIFMTSVAHSLFLSANHSEIWRIATSMDDRKSEIENWDLGAGIYMSFYLLKSSLQEDADTMVELEPLDSTNESCRNFVGRLNESLAVWGDRLPVEARVAYSKMAEEICDLLLSDLSKNPSRETQLTCFETAFDAPLPEDVRSTHLQDAVSLFSLYLSETGQISA
B5: Nup35, endogenous (protein, UniProt O04326 1-329)
chain: MSAAAHRTPKSGRQSLLFQDLASPVSARRGKFSSPGQAAAVSALWRENFGGSDLPPPPMYTLDDRSDFSPESGIADYSASPDAKSDRRTPFQSSGKNIVTPGKGKLEASPSFSLLNAQQSQQVSGSPSWWSQSKAGSSTEQDDKGKGSPVEGVVQPGALVTLPPPREVARPEVQRQIIPTGNLDEEEWVTVYGFSPGDTNLVLREFEKCGMVLKHVPGPRNANWMHILYQNRSDAHKALNKAGMMINGVVIVGVKPVDPIQKQALNERLNNQGFMPLPPPSSTRNTARPLSRPQYLQNGSAFSPQPSGGAMASPSKSMVSKFFDLMFGV
B6: SUN1, endogenous (protein, UniProt Q9FF75 1-471)
chain: MSASTVSITANTAAATRRTPILAGEKKSNFDYPQSESLANGGVGEAGGTSRDLSRGEATLDRSQGQDLGPVTRRSVSAATGTNTTATQRRTRKVATPKSEKARWKTVVRIFAKQLGALLIIVGLIQLTRKMILKASSPSSPISSYETEMAFSGLESRIAEVDGLVKATTNSMQVQVELLDKKMEREAKVLRQEIERKASAFQSELKKIESRTESLEKSVDEVNAKPWVTKDELERIYEELKKGNVDDSAFSEISIDELRAYARDIMEKEIEKHAADGLGRVDYALASGGAFVMEHSDPYLVGKGSSWFATTMRRAHTNAVKMLSPSFGEPGQCFPLKGSEGYVQIRLRGPIIPEAFTLEHVAKSVAYDRSSAPKDCRVSGSLQGPESSAETENMQLLTEFTYDLDRSNAQTFNILESSSSGLIDTVRLDFTSNHGSDSHTCIYRFRVHGRAPDPVPVVGTNLDQDSSPESE
B7: LOS4, endogenous (protein, UniProt Q93ZG7 1-496)
chain: MADTVEKVPTVVESSSSSTVEASNSAEKTEPTTEKKKWGDVEDDDDEEEAVSELNSLSIKEEEKPDSILEEPEDSNIKAVTSGDTPYTSASRFEDLNLSPELMKGLYVEMKFEKPSKIQAISLPMIMTPPHKHLIAQAHNGSGKTTCFVLGMLSRVDPTLREPQALCICPTRELANQNMEVLQKMGKFTGITAELAVPDSTRGAPAATRGAPVSAHVVIGTPGTLKKWMAFKRLGLNHLKILVFDEADHMLATDGFRDDSLKIMKDIGRVNPNFQVLLFSATFNETVKDFVARTVKDPNQLFVKREDLALDSVKQYKVVCPKEQNKIEVIKDQIMELGDIGQTIIFVKTKASAQKVHKALAEMGYDVTSVHGNLTESDRDKIVKEFKECLTQVLIATDVIARGFDQQRVNLVVNYNLPTKYETGEPDYEVYLHRVGRAGRFGRKGAVFNLLLDDGWDKEVMEKIEKYFEANVKEIKSWNSEEEYKSALKEAGLLDE
B8: LINC4, endogenous (protein, UniProt Q9FLH0 1-1010)
chain: MATSSRSERFPITPSTAATNRLTITPNSRVLKSPLTEEIMWKRLKDAGFDEQSIKNRDKAALIAYIAKLESEVYDYQHNMGLLLLEKNELSSQYEEIKASVDESDLTHMREKSAYVSALAEAKKREESLKKDVGIAKECISSLEKTLHEMRAECAETKVSAGSTMSEAHVMIEDALKKLADAEAKMRAAEALQAEANRYHRIAERKLKEVESREDDLTRRLASFKSECETKENEMVIERQTLNERRKSLQQEHERLLDAQVSLNQREDHIFARSQELAELEKGLDTAKTTFEEERKAFEDKKSNLEIALALCAKREEAVSERESSLLKKEQELLVAEEKIASKESELIQNVLANQEVILRKRKSDVEAELECKSKSVEVEIESKRRAWELREVDIKQREDLVGEKEHDLEVQSRALAEKEKDITEKSFNLDEKEKNLVATEEDINRKTTMLEDEKERLRKLDLELQQSLTSLEDKRKRVDSATQKLEALKSETSELSTLEMKLKEELDDLRAQKLEMLAEADRLKVEKAKFEAEWEHIDVKREELRKEAEYITRQREAFSMYLKDERDNIKEERDALRNQHKNDVESLNREREEFMNKMVEEHSEWLSKIQRERADFLLGIEMQKRELEYCIENKREELENSSRDREKAFEQEKKLEEERIQSLKEMAEKELEHVQVELKRLDAERLEIKLDRERREREWAELKDSVEELKVQREKLETQRHMLRAERDEIRHEIEELKKLENLKVALDDMSMAKMQLSNLERSWEKVSALKQKVVSRDDELDLQNGVSTVSNSEDGYNSSMERQNGLTPSSATPFSWIKRCTNLIFKTSPEKSTLMHHYEEEGGVPSEKLKLESSRREEKAYTEGLSIAVERLEAGRKRRGNTSGDETSEPSNNKKRKHDVTQKYSDEADTQSVISSPQNVPEDKHELPSSQTQTPSGMVVISETVKITRVTCETEVTNKVTTLDCSESPSEAGRKMGEETEDGDCNQTGINASETVIHNEAATEDICT

Sequences of proteins named here, by UniProt entry; tags and fusion partners are left off.
UniProt F4JP43: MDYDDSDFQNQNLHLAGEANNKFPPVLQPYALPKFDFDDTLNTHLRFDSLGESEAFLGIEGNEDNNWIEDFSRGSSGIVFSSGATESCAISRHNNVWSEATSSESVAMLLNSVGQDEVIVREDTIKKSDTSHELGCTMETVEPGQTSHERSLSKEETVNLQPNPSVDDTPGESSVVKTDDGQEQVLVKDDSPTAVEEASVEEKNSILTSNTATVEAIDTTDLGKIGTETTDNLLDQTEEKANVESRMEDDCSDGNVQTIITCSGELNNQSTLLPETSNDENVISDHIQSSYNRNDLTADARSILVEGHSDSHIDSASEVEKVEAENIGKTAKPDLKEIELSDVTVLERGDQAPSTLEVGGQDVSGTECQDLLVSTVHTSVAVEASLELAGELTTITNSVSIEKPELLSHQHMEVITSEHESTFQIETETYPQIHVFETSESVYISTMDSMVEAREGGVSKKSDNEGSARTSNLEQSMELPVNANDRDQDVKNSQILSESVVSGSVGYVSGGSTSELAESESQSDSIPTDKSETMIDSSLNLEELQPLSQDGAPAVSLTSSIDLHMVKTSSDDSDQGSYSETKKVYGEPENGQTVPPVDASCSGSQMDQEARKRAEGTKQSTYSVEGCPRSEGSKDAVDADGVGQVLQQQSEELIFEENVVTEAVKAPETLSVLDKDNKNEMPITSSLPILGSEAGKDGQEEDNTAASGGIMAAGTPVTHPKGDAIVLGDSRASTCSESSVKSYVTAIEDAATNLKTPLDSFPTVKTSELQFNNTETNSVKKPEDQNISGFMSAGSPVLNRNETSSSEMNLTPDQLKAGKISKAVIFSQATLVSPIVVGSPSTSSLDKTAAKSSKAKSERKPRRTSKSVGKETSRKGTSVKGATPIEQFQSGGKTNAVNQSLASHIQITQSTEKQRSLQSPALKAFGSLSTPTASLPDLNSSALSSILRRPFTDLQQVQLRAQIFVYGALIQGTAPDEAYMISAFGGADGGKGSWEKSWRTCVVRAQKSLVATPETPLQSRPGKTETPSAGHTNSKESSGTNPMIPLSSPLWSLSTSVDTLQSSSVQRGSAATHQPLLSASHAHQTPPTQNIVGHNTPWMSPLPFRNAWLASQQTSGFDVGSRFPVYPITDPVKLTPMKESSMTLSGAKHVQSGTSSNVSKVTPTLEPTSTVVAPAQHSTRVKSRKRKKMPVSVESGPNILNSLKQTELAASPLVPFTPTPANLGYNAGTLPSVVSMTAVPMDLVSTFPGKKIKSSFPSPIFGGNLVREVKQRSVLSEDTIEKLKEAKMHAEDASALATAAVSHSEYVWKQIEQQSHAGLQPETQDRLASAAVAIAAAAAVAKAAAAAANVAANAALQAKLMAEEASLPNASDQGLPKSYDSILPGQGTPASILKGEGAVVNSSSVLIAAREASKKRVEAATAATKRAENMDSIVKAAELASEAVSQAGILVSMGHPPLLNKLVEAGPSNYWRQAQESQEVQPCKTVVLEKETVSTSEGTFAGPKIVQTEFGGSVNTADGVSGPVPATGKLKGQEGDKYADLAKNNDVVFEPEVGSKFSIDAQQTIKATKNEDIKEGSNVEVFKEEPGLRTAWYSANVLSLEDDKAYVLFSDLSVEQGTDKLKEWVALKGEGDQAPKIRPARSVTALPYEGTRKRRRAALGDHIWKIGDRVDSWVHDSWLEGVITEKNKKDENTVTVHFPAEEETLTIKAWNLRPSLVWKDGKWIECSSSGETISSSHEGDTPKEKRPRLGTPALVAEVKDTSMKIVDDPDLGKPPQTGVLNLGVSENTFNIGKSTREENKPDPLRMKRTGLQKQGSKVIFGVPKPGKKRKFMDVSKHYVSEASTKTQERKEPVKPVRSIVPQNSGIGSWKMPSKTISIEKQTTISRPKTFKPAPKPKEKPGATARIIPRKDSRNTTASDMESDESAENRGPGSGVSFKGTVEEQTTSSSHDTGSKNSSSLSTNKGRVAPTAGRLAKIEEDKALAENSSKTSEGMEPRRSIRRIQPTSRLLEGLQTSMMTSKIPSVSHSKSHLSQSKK

These binders were tested against SWO1g-Myc (SWOLLEN 1 with 3xMyc, from SWO1pro:SWO1g-Myc) (Arabidopsis thaliana) (UniProt F4JP43) (assay: affinity purification with mass spectrometry; SWO1g-Myc as bait from transgenic Arabidopsis seedlings; anti-Myc agarose beads, 4 °C, 2 h; lysis buffer 50 mM Tris pH 7.6, 150 mM NaCl, 5 mM MgCl2, 10% glycerol, 0.1% NP-40, 0.5 mM DTT; four independent experiments).

| binding | Binder |
| --- | --- |
| binds | B1 |
| binds | B2 |
| binds | B3 |
| binds | B4 |
| binds | B5 |
| binds | B6 |
| binds | B7 |
| binds | B8 |

From article PMC10442049
